In article PMC3907802:
Results are given in words; binding and its absence hold for the method and conditions named. Binding seen in cells or lysates may run through a third protein. Some results given as binding are weak or reduced against the parent protein; the word gives no strength.

Target: T1, OTUD4 (endogenous, HCT116 cells) (human (endogenous in HCT116)) (UniProt Q01804)
T1 sequence: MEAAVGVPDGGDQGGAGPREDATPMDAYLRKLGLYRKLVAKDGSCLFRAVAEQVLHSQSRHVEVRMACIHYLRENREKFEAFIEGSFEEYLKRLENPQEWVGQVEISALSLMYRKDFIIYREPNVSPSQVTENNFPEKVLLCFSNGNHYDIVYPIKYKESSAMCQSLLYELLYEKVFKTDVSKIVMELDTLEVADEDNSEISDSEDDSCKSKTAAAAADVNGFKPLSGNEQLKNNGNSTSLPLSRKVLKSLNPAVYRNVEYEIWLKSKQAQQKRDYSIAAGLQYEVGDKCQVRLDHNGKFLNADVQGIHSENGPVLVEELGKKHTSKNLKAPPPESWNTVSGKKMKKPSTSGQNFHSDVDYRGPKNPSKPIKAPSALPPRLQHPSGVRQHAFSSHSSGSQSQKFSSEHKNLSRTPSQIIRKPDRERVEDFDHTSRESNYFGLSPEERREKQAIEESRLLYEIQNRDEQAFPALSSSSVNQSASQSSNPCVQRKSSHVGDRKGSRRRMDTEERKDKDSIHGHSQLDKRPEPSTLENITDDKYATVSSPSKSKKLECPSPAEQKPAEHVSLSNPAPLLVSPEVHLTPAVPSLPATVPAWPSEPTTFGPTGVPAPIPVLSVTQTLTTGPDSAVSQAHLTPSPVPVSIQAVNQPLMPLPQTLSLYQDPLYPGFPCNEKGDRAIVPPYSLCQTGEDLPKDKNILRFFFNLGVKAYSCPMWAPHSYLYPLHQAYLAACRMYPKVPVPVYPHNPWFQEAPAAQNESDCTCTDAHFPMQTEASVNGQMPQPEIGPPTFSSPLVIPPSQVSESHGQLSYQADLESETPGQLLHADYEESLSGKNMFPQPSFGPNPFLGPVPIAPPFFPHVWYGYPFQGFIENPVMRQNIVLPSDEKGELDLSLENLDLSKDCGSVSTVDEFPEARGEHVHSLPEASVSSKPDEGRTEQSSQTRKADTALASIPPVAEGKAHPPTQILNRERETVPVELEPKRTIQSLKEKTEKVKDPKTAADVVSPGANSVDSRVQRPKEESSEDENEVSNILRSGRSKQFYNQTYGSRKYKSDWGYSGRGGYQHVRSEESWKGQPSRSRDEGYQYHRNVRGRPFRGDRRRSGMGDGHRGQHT
Test: co-IP; HCT116 cell extracts incubated with no antibody, an XPC antibody or an anti-OTUD4 antibody; protein A/G beads; Western blot with an XPC antibody

## XPC (endogenous, HCT116 cells) (from UniProt Q01831 1-940)
  binding: binds
